We go through 42 sequences from publication PMC7819943, “Rice protein-binding microarrays: a tool to detect cis-acting elements near promoter regions in rice”.

Some of the results follow.

For the assay, the target named is T1, OsSMF1 (Oryza sativa, UniProt Q6ZLB0 1-436).
T1 sequence: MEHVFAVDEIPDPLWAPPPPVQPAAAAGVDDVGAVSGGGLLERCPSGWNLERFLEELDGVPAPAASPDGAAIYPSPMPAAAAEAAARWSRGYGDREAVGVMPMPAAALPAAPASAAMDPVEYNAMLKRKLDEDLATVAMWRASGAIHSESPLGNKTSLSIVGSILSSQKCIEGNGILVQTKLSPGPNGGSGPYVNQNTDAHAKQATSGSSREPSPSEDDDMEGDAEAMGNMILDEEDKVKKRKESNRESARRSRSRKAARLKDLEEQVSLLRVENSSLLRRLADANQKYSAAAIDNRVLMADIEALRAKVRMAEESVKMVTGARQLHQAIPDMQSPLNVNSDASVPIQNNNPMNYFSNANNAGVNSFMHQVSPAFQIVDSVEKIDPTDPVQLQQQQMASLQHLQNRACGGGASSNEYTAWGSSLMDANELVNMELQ
Description: protein-binding microarray (RPBM); PBS, 2% BSA, 51.3 ng/ul salmon testes DNA, 50 uM zinc acetate, 200 nM TF, 25 C, 1 h; high values mean tight binding. As to conditions: protein: recombinant; tags: N-terminal polyhistidine and DsRed monomer fusion (pET32a); chain copies: 2; label: CyDye5-dUTP incorporated in the synthesized complementary strand; 3' TTTTT single-stranded linker to array surface; dsDNA, one strand shown. Summed up: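 The binding signal is fluorescence intensity per array feature (arbitrary units). Readings came from an Axon 4000B scanner after a washed, 2% BSA-blocked, double-stranded custom Agilent array had been incubated for 1 h at 25 °C with 200 nM protein and 50 µM zinc acetate. The protein was a Ni–NTA-purified transcription factor fused N-terminally to polyhistidine and DsRed, expressed in E. coli BL21-CodonPlus.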
For “TAAGATGGAGGAGGCGAGGAGAGTTGCGTAGGATGGAGTGCGGAGTCACCTAGTGCAG”, the binding signal is 3880 fluorescence intensity (a.u.). “AATGCCTCAACAACTAGGGCAGCGTTCGTTCCAGTGAGTTCGGAGTCACCTAGTGCAG”: the binding signal was 3180 fluorescence intensity (a.u.). As for “TTTCTTCACTACTTGCACGATGATGACGATGTGGAGCTAACGGAGTCACCTAGTGCAG”, the binding signal was 3540 fluorescence intensity (a.u.). For “CGAGGCGGGGTGCACCTTCATGGTCAGTGGCCCGTGGTTCCGGAGTCACCTAGTGCAG” the value was 4270 fluorescence intensity (a.u.); for “GAGGCGGCGGATCTGACGTCTAACCTAATTGTTGTCCCAGCGGAGTCACCTAGTGCAG”, 4090 fluorescence intensity (a.u.); for “CTTTGATGGCTGAGTTGGCATCTTCGCAGGATGCGCATGACGGAGTCACCTAGTGCAG”, 7300 fluorescence intensity (a.u.). Regarding “ATGCAGCCACACGGATGTTGGACGTCATTGTCTATAGTGTCGGAGTCACCTAGTGCAG”, the binding signal is 4580 fluorescence intensity (a.u.). On to “GACGTGCGCAGTGACGCAGCATCCCTCGTCTCCGCTATTTCGGAGTCACCTAGTGCAG”, for which the binding signal is 7830 fluorescence intensity (a.u.). As for “ATGCGCACTTTCCCTGTAAGTACACACGTACACTGTACCCCGGAGTCACCTAGTGCAG”, the binding signal was 3180 fluorescence intensity (a.u.).

Regarding “TTTTGTTTACTTGGAGATTTGTGATATCATCTTGACCATGCGGAGTCACCTAGTGCAG”, the binding signal was 3760 fluorescence intensity (a.u.). For “GGAAAACACGATGGAATAGCTCACCCCAACTTCCGTTTCGCGGAGTCACCTAGTGCAG”, the binding signal was 3320 fluorescence intensity (a.u.). With “ACTCTCTGGTTTGTCATGTGTTACACCCAATTGTCATCAGCGGAGTCACCTAGTGCAG”, the binding signal is 3520 fluorescence intensity (a.u.). Take “ATTTAAATCAATGTTGATGATGTAGCACTTTTGAATTCATCGGAGTCACCTAGTGCAG”: the binding signal is 3380 fluorescence intensity (a.u.). For the sequence “GAATCCACGTGTTAGTGACGCACATCCCTCTAAAGTACGTCGGAGTCACCTAGTGCAG”, the binding signal is 13900 fluorescence intensity (a.u.). Turning to “GGGTTGACCAGCCAGGCAGGCTCGACTCAAGCCCGACCCCCGGAGTCACCTAGTGCAG”, the binding signal was 18300 fluorescence intensity (a.u.). “AGTACTAGTTGGAATCATATGTGTCTATGGAGTATATTTTCGGAGTCACCTAGTGCAG”: the binding signal was 3160 fluorescence intensity (a.u.). Consider “CACCTATCCATCCATCCATGTGTGGTGTCGTGTCAGCGTTCGGAGTCACCTAGTGCAG”, for which the binding signal was 6950 fluorescence intensity (a.u.). As for “CAGAAACAAAGAACCCGTCATCCCCACGGCCGCTTCTCTCCGGAGTCACCTAGTGCAG”, the binding signal is 3850 fluorescence intensity (a.u.). Consider “CCGGATATGTTCTCGTAGTTTATATACGTTCATGATGACACGGAGTCACCTAGTGCAG”, for which the binding signal is 3450 fluorescence intensity (a.u.).

Consider “TTAGTGCATGCTGCTAACTAAATACACGTAGCTTGTTGATCGGAGTCACCTAGTGCAG”, for which the binding signal was 3310 fluorescence intensity (a.u.).

On to “CGAAGAAAGTTTACAGCCCACGTATCTGCTATATATGGGCCGGAGTCACCTAGTGCAG”, for which the binding signal was 3610 fluorescence intensity (a.u.).

“GACCACGTGGCCGCCACCTCAGCCACCCGGCCCCGCTTGACGGAGTCACCTAGTGCAG”: the binding signal was 13800 fluorescence intensity (a.u.). Turning to “AGACACTTTTGCAGGGATTGCTCAGACTTAGTTTCAGAGTCGGAGTCACCTAGTGCAG”, the binding signal was 3940 fluorescence intensity (a.u.).

For the sequence “CGACGCGGCGGCGAAAAGTCGGCGAACTGCGGCGAGGTGGCGGAGTCACCTAGTGCAG”, the binding signal was 30100 fluorescence intensity (a.u.).

“TTCGCTCTCCGCCCACTTCCCCATCACGCGCGAGCGCTGCCGGAGTCACCTAGTGCAG”: the binding signal is 4600 fluorescence intensity (a.u.). For “TTTATTGTAATGACGTGCGCAACACGGCAGAATTTTATGTCGGAGTCACCTAGTGCAG” the value was 4820 fluorescence intensity (a.u.); for “GATACATGTGTATGACATGTGGGACCAGATACTAATTATGCGGAGTCACCTAGTGCAG”, 19300 fluorescence intensity (a.u.).

Turning to “ACGGATGGGTGGGACCCACGTGGACACGTGGCCAAACGGCCGGAGTCACCTAGTGCAG”, the binding signal is 12200 fluorescence intensity (a.u.). Next, “GTTGCAACCACAGCCGTCCGGCACTGTACGCTACTGTTTTCGGAGTCACCTAGTGCAG”: 30600 fluorescence intensity (a.u.). For the sequence “ACCCAACCACCGGCTGTTGCATCCACGCCACCGTGTCGTGCGGAGTCACCTAGTGCAG”, the binding signal is 4840 fluorescence intensity (a.u.).

For the sequence “TGATTCCACACATTCGGTGTGCGCCGCGTCCACGCCGCCCCGGAGTCACCTAGTGCAG”, the binding signal was 4660 fluorescence intensity (a.u.).

In the case of “GGAGATGGAGCTAGGGTTTGGGCGGCGGCGGCGCGCCGAGCGGAGTCACCTAGTGCAG”, the binding signal is 19600 fluorescence intensity (a.u.). For “AACACACCCTAAAGGAGTATACCAATGTACCATGATGACTCGGAGTCACCTAGTGCAG” the value was 3830 fluorescence intensity (a.u.); for “CACTGGTACACGGAGTATATACACACACCACTAGTCCCGTCGGAGTCACCTAGTGCAG”, 3150 fluorescence intensity (a.u.); for “TAGAAAGTCTCTCTTGTCAGTGTCACTGATCGATATATCGCGGAGTCACCTAGTGCAG”, 4930 fluorescence intensity (a.u.). As to “GGCGGCGTGGAGCTGCGAGGGCAGTGGCGGCGGGGAGCTGCGGAGTCACCTAGTGCAG”, the binding signal is 3230 fluorescence intensity (a.u.).

For the sequence “GCGTGGAGTGGAGAGTGGAGAGGCATGGGAGGCATGGCAGCGGAGTCACCTAGTGCAG”, the binding signal is 42900 fluorescence intensity (a.u.). With “ACGATCCAATCTTCATGTTTGTCCTAATGACGTTGCGACTCGGAGTCACCTAGTGCAG”, the binding signal was 4850 fluorescence intensity (a.u.). For the sequence “AACTAAACTCCGCGTTAGTATGACATGTAAGCCCCACAGTCGGAGTCACCTAGTGCAG”, the binding signal was 3810 fluorescence intensity (a.u.). Next, “ATGGCAAGCAACGCGTCAACGATGACGACGGTGGTGTGCGCGGAGTCACCTAGTGCAG”: 5680 fluorescence intensity (a.u.); “AACGTCACTGACAAGTGGGACCCTATACGTGGGATCACTCCGGAGTCACCTAGTGCAG”: 3880 fluorescence intensity (a.u.); “CCCCTTATTTCTCTGCCAAGTGCCAACTCAGCATATTAGTCGGAGTCACCTAGTGCAG”: 12600 fluorescence intensity (a.u.).
